Results as given in PubChem BioAssay AID328 (DTP/NCI, 2004).
The list is a part of this screen's results and no random one: it is rich in T/C values a quarter to a half above the control, in often repeated tests (any T/C) and in doses without a T/C. Further doses and runs are listed elsewhere. T/C is the treated group as % of the vehicle group. Some entries give survivors of the animals treated and no T/C: the source files T/C as zero there, which appears to mark a toxic dose or a test without result, not a measured value. Some doses without a T/C left all or most animals alive at the check, yet need not have been tolerated: survival well below the control is almost never listed, so the zero probably covers shortened survival too. Survivors were counted at the toxicity check, usually on the fifth day, unless a day is given; later deaths do not show. Schedules are NCI's codes, taken here to give the interval after Q, in days (D) or hours (H), and the number of doses after X. Some doses were run more than once; their values stand side by side, smallest first. For survival time, this PubChem deposit counts one and a half times the control or more as active, and values a quarter to a half above the control carry no call in these data; other NCI protocols may use other cut-offs. Brackets with × give the number of equal values in this list. Some T/C values carry the count of animals alive at the toxicity check (mostly the fifth day); where none is given, no animal had died by that day.

System: BDF1 mice, P388 leukemia ip, median survival T/C
Test: NCI In Vivo Anticancer Drug Screen. Data for tumor model P388 Leukemia (intraperitoneal) in B6D2F1 (BDF1) mice
Details: higher T/C = longer survival
Summary of the method: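 Read-out is survival of treated animals expressed relative to the vehicle group, as a T/C ratio.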

[1] = T/C endpoint: median survival time, dose: 50.0 mg/kg/injection, schedule: Q01DX009 (ip), vehicle: saline
[2] = T/C endpoint: median survival time, dose: 50.0 mg/kg/injection, schedule: Q04DX003 (ip), vehicle: saline
[3] = T/C endpoint: median survival time, dose: 67.0 mg/kg/injection, schedule: Q04DX003 (ip), vehicle: Klucel (hydroxypropylcellulose) (HPC)
[4] = T/C endpoint: median survival time, dose: 100.0 mg/kg/injection, schedule: Q01DX009 (ip), vehicle: Klucel (hydroxypropylcellulose) (HPC)
[5] = T/C endpoint: median survival time, dose: 100.0 mg/kg/injection, schedule: Q01DX009 (ip), vehicle: saline
[6] = T/C endpoint: median survival time, dose: 100.0 mg/kg/injection, schedule: Q04DX003 (ip), vehicle: Klucel (hydroxypropylcellulose) (HPC)
[7] = T/C endpoint: median survival time, dose: 100.0 mg/kg/injection, schedule: Q04DX003 (ip), vehicle: saline
[8] = T/C endpoint: median survival time, dose: 150.0 mg/kg/injection, schedule: Q04DX003 (ip), vehicle: Klucel (hydroxypropylcellulose) (HPC)
[9] = T/C endpoint: median survival time, dose: 200.0 mg/kg/injection, schedule: Q01DX009 (ip), vehicle: saline
[10] = T/C endpoint: median survival time, dose: 200.0 mg/kg/injection, schedule: Q04DX003 (ip), vehicle: saline
[11] = T/C endpoint: median survival time, dose: 200.0 mg/kg/injection, schedule: Q04DX002 (ip), vehicle: saline with Tween-80
[12] = T/C endpoint: median survival time, dose: 400.0 mg/kg/injection, schedule: Q04DX002 (ip), vehicle: saline with Tween-80
[13] = T/C endpoint: median survival time, dose: 50.0 mg/kg/injection, schedule: Q01DX009 (ip), vehicle: saline with Tween-80
[14] = T/C endpoint: median survival time, dose: 100.0 mg/kg/injection, schedule: Q01DX009 (ip), vehicle: saline with Tween-80
[15] = T/C endpoint: median survival time, dose: 200.0 mg/kg/injection, schedule: Q01DX009 (ip), vehicle: saline with Tween-80
[16] = T/C endpoint: median survival time, dose: 100.0 mg/kg/injection, schedule: Q04DX003 (ip), vehicle: saline with Tween-80
[17] = T/C endpoint: median survival time, dose: 400.0 mg/kg/injection, schedule: Q04DX003 (ip), vehicle: saline with Tween-80
[18] = T/C endpoint: median survival time, dose: 400.0 mg/kg/injection, schedule: Q01DX009 (ip), vehicle: saline with Tween-80
[19] = T/C endpoint: median survival time, dose: 150.0 mg/kg/injection, schedule: Q01DX009 (ip), vehicle: saline with Tween-80

Compound: C/C(=C\c1ccccc1)[N+](=O)[O-]
- T/C (T/C endpoint: median survival time, dose: 16.0 mg/kg/injection, schedule: Q01DX009 (ip), vehicle: Klucel (hydroxypropylcellulose) (HPC)): 146 % of control
- survivor count (T/C endpoint: median survival time, dose: 25.0 mg/kg/injection, schedule: Q04DX003 (ip), vehicle: saline): 6 of 6
- T/C (T/C endpoint: median survival time, dose: 30.0 mg/kg/injection, schedule: Q04DX003 (ip), vehicle: Klucel (hydroxypropylcellulose) (HPC)): 125 % of control
- T/C (T/C endpoint: median survival time, dose: 32.0 mg/kg/injection, schedule: Q01DX009 (ip), vehicle: Klucel (hydroxypropylcellulose) (HPC)): 138 % of control
- T/C (T/C endpoint: median survival time, dose: 44.0 mg/kg/injection, schedule: Q04DX003 (ip), vehicle: Klucel (hydroxypropylcellulose) (HPC)): 140 % of control (2×)
- survivor count [1]: 3 of 6
- T/C [2]: 127 % of control
- survivor count (T/C endpoint: median survival time, dose: 64.0 mg/kg/injection, schedule: Q01DX009 (ip), vehicle: Klucel (hydroxypropylcellulose) (HPC)): 4 of 6
- T/C [3]: 145 % of control (2×)
- survivor count [3]: 5 of 6
- survivor count [4]: 1 of 6 and 2 of 6
- survivor count [5]: 4 of 6
- T/C [6]: 110, 130, 140 % of control
- survivor count [6]: 4 of 6
- survivor count [7]: 6 of 6
- survivor count (T/C endpoint: median survival time, dose: 150.0 mg/kg/injection, schedule: Q01DX009 (ip), vehicle: Klucel (hydroxypropylcellulose) (HPC)): 0 of 6
- T/C [8]: 125 % of control [5 of 6 alive]
- survivor count [8]: 2 of 6 and 4 of 6
- survivor count (T/C endpoint: median survival time, dose: 200.0 mg/kg/injection, schedule: Q01DX009 (ip), vehicle: Klucel (hydroxypropylcellulose) (HPC)): 0 of 6
- survivor count [9]: 1 of 6
- survivor count [10]: 6 of 6

Compound: NC(=O)c1cc(=S)[nH]c2nc(Cl)nc(N)c12
- survivor count [11]: 4 of 6
- survivor count [12]: 1 of 6

Compound: O=S1(=O)CC(O)C(Cl)C1 (configuration not stated)
- survivor count (T/C endpoint: median survival time, dose: 400.0 mg/kg/injection, schedule: Q01DX001 (ip), vehicle: saline): 3 of 6

Compound: CC12CCOC(=O)/C=C/C=C/C(=O)OC3CC4OC5C6OC6(C)CCC5(COC(=O)C1O2)C3(C)C41CO1 (configuration not stated)
- T/C (T/C endpoint: median survival time, dose: 1.25 mg/kg/injection, schedule: Q01DX009 (ip), vehicle: saline + alcohol): 127 % of control
- T/C (T/C endpoint: median survival time, dose: 5.0 mg/kg/injection, schedule: Q01DX009 (ip), vehicle: saline + alcohol): 148 % of control

Compound: CCN(CC)CCCCCCNc1cc(OC)c(OC)c2c(C)ccnc12
- survivor count (T/C endpoint: median survival time, dose: 12.5 mg/kg/injection, schedule: Q01DX009 (ip), vehicle: saline): 6 of 6
- survivor count [1]: 0 of 6
- survivor count [5]: 0 of 6
- survivor count [9]: 0 of 6

Compound: O=C(NNC1CCCCC1)c1ccccc1
- survivor count [13]: 6 of 6
- survivor count [14]: 4 of 6

Compound: Cn1ncc2c(N)ncnc21
- survivor count (T/C endpoint: median survival time, dose: 12.5 mg/kg/injection, schedule: Q01DX009 (ip), vehicle: Klucel (hydroxypropylcellulose) (HPC)): 5 of 6
- survivor count (T/C endpoint: median survival time, dose: 25.0 mg/kg/injection, schedule: Q01DX009 (ip), vehicle: Klucel (hydroxypropylcellulose) (HPC)): 6 of 6
- survivor count (T/C endpoint: median survival time, dose: 50.0 mg/kg/injection, schedule: Q01DX009 (ip), vehicle: Klucel (hydroxypropylcellulose) (HPC)): 6 of 6
- survivor count [4]: 2 of 6

Compound: COc1ccccc1N1C(=O)CC(Sc2ccccc2N)C1=O (configuration not stated)
- T/C [15]: 133 % of control

Compound: NC(=S)c1ccc[n+](Cc2c(Cl)cccc2Cl)c1
- survivor count [11]: 0 of 6

Compound: CCOC(=O)c1sc2nc(C)cc(C)c2c1N
- survivor count (T/C endpoint: median survival time, dose: 50.0 mg/kg/injection, schedule: Q01DX005 (ip), vehicle: saline with Tween-80): 5 of 5

Compound: CCCCCCCCCCC(=O)N1CCOCC1
- survivor count [16]: 2 of 6

Compound: O=C1OC(=O)C2C3C=CC(C4C=CC43)C12 (configuration not stated)
- survivor count [5]: 6 of 6

Compound: CC(=O)Nc1ncc(Sc2ccc([N+](=O)[O-])cc2)s1
- survivor count (T/C endpoint: median survival time, dose: 50.0 mg/kg/injection, schedule: Q04DX003 (ip), vehicle: saline with Tween-80): 0 of 6
- survivor count [16]: 0 of 6
- survivor count (T/C endpoint: median survival time, dose: 200.0 mg/kg/injection, schedule: Q04DX003 (ip), vehicle: saline with Tween-80): 0 of 6
- survivor count [17]: 0 of 6

Compound: CCCOC(=O)C1(N)CCCC1
- survivor count [18]: 6 of 6

Compound: CCOC(=O)c1cnc2c(cnn2CC)c1NN=C(C)C
- T/C [7]: 133 % of control

Compound: CN(C)c1ccc(/C=C/c2ccnc3c(O)ccc(O)c23)cc1
- survivor count [15]: 6 of 6

Compound: N#CC1CC2(CCC1=O)c1ccccc1-c1ccccc12 (configuration not stated)
- survivor count (T/C endpoint: median survival time, dose: 100.0 mg/kg/injection, schedule: Q04DX002 (ip), vehicle: saline with Tween-80): 3 of 6
- survivor count [11]: 2 of 6
- survivor count [12]: 0 of 6

Compound: CC1CCCCC1(O)CSc1ccccc1 (configuration not stated)
- T/C [13]: 131 % of control

Compound: CCN(CC)CCCC(C)NC(=O)c1cccc2c([N+](=O)[O-])cccc12 (configuration not stated)
- survivor count (T/C endpoint: mean survival time, dose: 6.25 mg/kg/injection, schedule: Q01DX009 (ip), vehicle: water): 6 of 6

Compound: O=c1[nH]c(=O)n(CC(O)c2ccc(Cl)s2)cc1F (configuration not stated)
- T/C [16]: 126 % of control

Compound: CCOC(=O)c1c[nH]c(=O)c([N+](=O)[O-])c1O
- survivor count [15]: 6 of 6
- survivor count [18]: 6 of 6

Compound: CCN(CC)Cc1c(O)ccc2c3c(c(=O)oc12)CCCC3
- survivor count (T/C endpoint: median survival time, dose: 128.0 mg/kg/injection, schedule: Q01DX005 (ip), vehicle: saline): 0 of 4
- survivor count (T/C endpoint: median survival time, dose: 256.0 mg/kg/injection, schedule: Q01DX005 (ip), vehicle: saline): 0 of 4

Compound: Cc1nc2ccccc2c(=O)n1C(C)(C)CCl
- T/C [17]: 127 % of control

Compound: COc1ccc(C[C@H](N)C(=O)NC2C(CO)OC(n3cnc4c(N(C)C)ncnc43)C2O)cc1 (some centres not stated)
- T/C (T/C endpoint: median survival time, dose: 66.0 mg/kg/injection, schedule: Q01DX009 (ip), vehicle: saline): 140 % of control
- survivor count (T/C endpoint: median survival time, dose: 150.0 mg/kg/injection, schedule: Q01DX009 (ip), vehicle: saline): 6 of 6
- T/C [10]: 129 % of control
- survivor count (T/C endpoint: median survival time, dose: 400.0 mg/kg/injection, schedule: Q04DX003 (ip), vehicle: saline): 4 of 8

Compound: OC(COc1cccc(C(F)(F)F)c1)CN1CCN(c2ccc(F)cc2)CC1 (configuration not stated)
- survivor count [15]: 2 of 6

Compound: Clc1nnc(Cl)c(Cl)c1Cl
- T/C (T/C endpoint: median survival time, dose: 1.3 mg/kg/injection, schedule: Q04DX003 (ip), vehicle: Klucel (hydroxypropylcellulose) (HPC)): 125 % of control
- survivor count (T/C endpoint: median survival time, dose: 1.8 mg/kg/injection, schedule: Q01DX009 (ip), vehicle: saline): 6 of 6
- T/C (T/C endpoint: median survival time, dose: 2.0 mg/kg/injection, schedule: Q04DX003 (ip), vehicle: Klucel (hydroxypropylcellulose) (HPC)): 125 % of control
- survivor count (T/C endpoint: median survival time, dose: 3.0 mg/kg/injection, schedule: Q04DX003 (ip), vehicle: Klucel (hydroxypropylcellulose) (HPC)): 5 of 6
- survivor count (T/C endpoint: median survival time, dose: 4.2 mg/kg/injection, schedule: Q01DX009 (ip), vehicle: saline): 0 of 6

Compound: CCN=NNc1ccc(C)cc1
- T/C (T/C endpoint: median survival time, dose: 33.0 mg/kg/injection, schedule: Q01DX009 (ip), vehicle: saline with Tween-80): 127 % of control [5 of 6 alive]
- survivor count (T/C endpoint: median survival time, dose: 66.0 mg/kg/injection, schedule: Q01DX009 (ip), vehicle: saline with Tween-80): 2 of 6
- survivor count [14]: 0 of 6
- T/C [19]: 129 % of control
- survivor count [19]: 0 of 6

Compound: CC1(C)N=C(N)N=C(N)N1c1cccc(C#N)c1
- T/C [2]: 127 % of control
- T/C (T/C endpoint: median survival time, dose: 75.0 mg/kg/injection, schedule: Q04DX003 (ip), vehicle: saline): 130 % of control
- survivor count [10]: 0 of 6
